Values from PubChem BioAssay AID743454 (Peter MacCallum Cancer Centre, 2014).
Aim: 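Search for knock-downs that restore vorinostat killing in resistant colon cancer cells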 (primary screen). Cell system: human HCT116-VR colon cancer cells, selected for vorinostat resistance. Reagents: siRNA pool against human genes, 40 nM siRNA pool. Duration: vorinostat for 24 h, read-out about 72 h after transfection. Challenge: vorinostat at 2.5 µM final. Measurement: 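Cell viability by CellTiter-Fluor and caspase 3/7 activity by luminescence, each scaled to mock wells per plate, duplicates averaged, then robust z-scored over all plates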. Direction: viability robust z-score: higher = more viable cells than screen typical; caspase robust z-score: higher = more caspase 3/7 activity than screen typical. Call rule: 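Hits are knock-downs in viability class RV1/RV2 or caspase class CA1/CA2, excluding ones that killed cells in the no-drug cell-count arm; hits then retested with single siRNAs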.
In all, the deposit lists about 18,000 reagents; shown is a part drawn at random. 450 of all reagents (2.5%) count as active. 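Single biological run; no consistent viability z cut-off exists, so the class columns, not z-scores, define the calls.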 A number with no mark means an inactive call.

| Gene | viability hit class | caspase hit class | viability robust z-score | caspase robust z-score |
| --- | --- | --- | --- | --- |
| ASIC4 | no change | no change | -0.33 | -0.93 |
| MLANA | no change | no change | -0.61 | 3.5 |
| RAI1 | no change | no change | 0.21 | -0.83 |
| PRELID3A | no change | no change | -0.84 | 0.24 |
| CDC7 | no change | no change | 0.78 | 1.08 |
| TVP23B | no change | no change | 0.55 | 0.7 |
| RAB40B | no change | no change | -0.39 | 3.23 |
| UBALD1 | no change | no change | -2.17 | 5.11 |
| RAB6A | no change | no change | 0.42 | 0.26 |
| NME7 | no change | no change | 0.22 | -0.76 |
| SRP68 | no change | no change | 0.18 | -0.22 |
| NCAM2 | no change | no change | 0.74 | -1.03 |
| STX1B | no change | no change | 0.74 | 0 |
| OR2A14 | no change | no change | -0.75 | 0.71 |
| CCDC87 | no change | no change | -1.01 | -1.13 |
| ZNF833P | no change | no change | 0.78 | -0.97 |
| GAK | no change | no change | -0.63 | -0.12 |
| FUZ | no change | no change | 0.68 | -0.24 |
| GFUS | no change | no change | -0.85 | 0.6 |
| PTH2R | no change | no change | -0.24 | -0.01 |
| FBXO44 | no change | no change | -1.38 | 0.74 |
| CLEC9A | no change | no change | 0.32 | -0.38 |
| CRIP3 | no change | no change | -1.01 | 0.92 |
| SFXN2 | no change | no change | -1.51 | 4.61 |
| TCEA2 | no change | no change | -0.18 | 0.58 |
| MRPL39 | no change | no change | 0.6 | -0.35 |
| TGFB1 | no change | no change | 0.34 | -0.08 |
| RPL13A | no change | no change | -4.13 | -0.64 |
| IFNA13 | no change | no change | 1.6 | -0.6 |
| IDI2 | no change | no change | 0.04 | -0.1 |
| INMT | no change | no change | 0.53 | -1.27 |
| MLLT11 | no change | no change | 0.66 | -0.06 |
| LRRC14B | no change | no change | 0.66 | 0.02 |
| DPPA3 | no change | no change | 1.5 | -0.68 |
| REEP1 | no change | no change | -0.04 | 0.95 |
| CORO1A | no change | no change | 0.14 | -0.92 |
| YIF1B | no change | no change | -0.49 | -0.57 |
| LEPR | no change | no change | 0.4 | -0.7 |
| MRPL17 | no change | no change | -0.13 | 2.39 |
| PRR13 | no change | no change | 0.7 | -0.2 |
| SLC48A1 | no change | no change | -1.23 | 0.6 |
| MBTPS2 | no change | no change | 1.59 | -0.45 |
| SHROOM3 | no change | no change | 1.54 | 1.05 |
| DSE | no change | no change | 0.28 | -0.62 |
| CYTL1 | no change | no change | -0.4 | -0.38 |
| MARCHF2 | no change | no change | -0.5 | 2.04 |
| RAB31 | no change | no change | -0.24 | -0.56 |
| H2AC14 | no change | no change | 0.89 | 0.01 |
| RAB27A | no change | no change | -0.29 | 1.48 |
| RRP7A | no change | no change | -0.98 | -1.09 |
| CCR10 | no change | no change | 0.18 | -1.1 |
| SPEG | no change | no change | -0.04 | -0.98 |
| TEX26 | no change | no change | -0.52 | -1.21 |
| KCNJ14 | no change | no change | 0.22 | -0.68 |
| FLG | no change | no change | -1.33 | 0.36 |
| CSRNP3 | no change | no change | 0 | -0.29 |
| PCDHA10 | no change | no change | -1.81 | 2.13 |
| C7 | no change | no change | -0.26 | 1.27 |
| LPCAT3 | no change | no change | 1.12 | 1.26 |
| CES1 | no change | no change | -0.58 | -0.39 |
| NRDC | no change | no change | -0.52 | 4.8 |
| F8 | no change | no change | -1.88 | 0.88 |
| ACAA2 | no change | no change | 1.26 | 0.52 |
| SAMD9 | no change | no change | 0.18 | 0.7 |
| SERPINA10 | no change | no change | -0.68 | -0.77 |
| CROCC | no change | no change | 0.2 | 0.34 |
| OR6B3 | no change | no change | 0.2 | -0.19 |
| TRPC1 | no change | no change | -1.64 | 0.64 |
| SND1 | no change | no change | -0.47 | -0.72 |
| USP40 | no change | no change | -1.39 | 2.79 |
| NLRC3 | no change | no change | -2.21 | 0.08 |
| SOCS7 | no change | no change | -0.52 | 0.88 |
| IFT54 | no change | no change | -0.54 | 0.93 |

Part of the list above, reformatted:
Gene,viability hit class,caspase hit class,viability robust z-score,caspase robust z-score
PRELID3A,no change,no change,-0.84,0.24
CDC7,no change,no change,0.78,1.08
TVP23B,no change,no change,0.55,0.7
RAB40B,no change,no change,-0.39,3.23
UBALD1,no change,no change,-2.17,5.11
RAB6A,no change,no change,0.42,0.26
NME7,no change,no change,0.22,-0.76
SRP68,no change,no change,0.18,-0.22
NCAM2,no change,no change,0.74,-1.03
STX1B,no change,no change,0.74,0
OR2A14,no change,no change,-0.75,0.71
CCDC87,no change,no change,-1.01,-1.13
